Source: paper PMC9415646, “Improving Aqueous Solubility and In Vitro Pharmacokinetic Properties of the 3-Nitroimidazo[1,2-a]pyridine Antileishmanial Pharmacophore” (Pharmaceuticals, 2022)

Assays:
[1] = system: T. b. brucei BSF trypomastigotes; test: Antitrypanosomal evaluation on T. b. brucei BSF trypomastigotes (Alamar Blue); assay type: cell-based, Trypanosoma brucei brucei; settings: SI = CC50 HepG2/EC50 T. brucei brucei
Protocol: The effects of the tested compounds on the growth of T. b. brucei were assessed by Alamar Blue® assay described by Räz et al. T. b. brucei AnTat 1.9 (IMTA, Antwerpen, Belgium) was cultured in MEM with Earle’s salts, supplemented according to the protocol of Baltz et al. with the following modifications: 0.5 mM mercaptoethanol (Sigma Aldrich®, France), 1.5 mM L-cysteine (Sigma Aldrich®), 0.05 mM bathocuproïne sulfate (Sigma Aldrich®) and 20% heat-inactivated horse serum (Gibco®, France), at 37 °C and 5% CO2. They were incubated at an average density of 2000 parasites/100 µL in sterile 96-wells plates (Fisher®, France) with various concentrations of compounds dissolved in DMSO, in duplicate. Appropriate controls suramin, treated with sterile water, and fexinidazole, treated with DMSO on sterile water (reference drugs purchased from Sigma Aldrich, France and Fluorochem, UK) were added to each set of experiments. After a 69 h incubation period at 37 °C, 10 µL of the viability marker Alamar Blue® (Fisher, France) were then added to each well, and the plates were incubated for 5 h. The plates were read in a ENSPIRE microplate reader (PerkinElmer, Waltham, MA, USA) using an excitation wavelength of 530 nm and an emission wavelength of 590 nm. […] EC50 were calculated by nonlinear regression analysis processed on dose-response curves, using GraphPad Prism software (USA). EC50 values were calculated from three separate experiments.

[2] = system: L. infantum intracellular amastigotes; test: Antileishmanial activity on L. infantum intracellular (intra-THP1 macrophage) amastigotes; assay type: cell-based, Leishmania infantum; settings: for SI HepG2 L. infantum Intra. Ama.: SI = CC50 HepG2/EC50 L. infantum intracellular amastigotes; for SI THP1 L. infantum Intra. Ama.: SI = CC50 THP1/EC50 L. infantum intracellular amastigotes
Protocol: The undifferentiated THP1 human monocyte cells (acute monocytic leukemia cell line purchased from ATCC, ref TIB-202) were grown in RPMI 1640 medium (Life Technologies, Saint-Aubin, France) supplemented with 10% FCS (Life Technologies, Saint-Aubin, France), 100 U/mL penicillin, 100 µg/mL streptomycin and 2 mM L-glutamine at 37 °C, 5% CO2. The culture was maintained between 3.10^5 and 1.10^6 cells/mL. The in vitro evaluation of the antileishmanial activity on intracellular amastigote forms of the tested compound was assessed as below.
Briefly, 200 μL of THP-1 cells with Phorbol 12-Myristate 13-Acetate (final concentration 50 ng/mL) were seeded in 96-well plates at an average density of 0.77 × 10^5 cells/mL and incubated for 96 h at 37 °C, 5% CO2. Promastigotes were centrifuged at 3000 rpm for 10 min and the supernatant replaced by the same volume of complete RPMI pH 5.4 and incubated for 24 h at 27 °C. Differentiated THP-1 cells were then infected by acidified promastigotes with an infection ratio of twenty parasites for one macrophage and incubated for 24 h at 37 °C, 5% CO2.
• Luciferase activity and determination of EC50 were performed as above.

SMILES	SI T. b. brucei [1]	SI HepG2 L. infantum Intra. Ama. [2]	SI THP1 L. infantum Intra. Ama. [2]
O=[N+]([O-])c1c(CS(=O)(=O)c2ccc(O)cc2)nc2c(Br)cc(Cl)cn12 [Compound 2c, 4-{[(8-Bromo-6-Chloro-3-Nitroimidazo[1,2-a]pyridin-2-yl)methyl]sulfonyl}phenol]	>9.8	–	–
O=[N+]([O-])c1c(CS(=O)(=O)CCC(F)(F)F)nc2c(S(=O)(=O)c3ccc(Cl)cc3)cc(Cl)cn12 [Compound 6b, 6-Chloro-8-[(4-Chlorophenyl)sulfonyl]-3-Nitro-2-[(3,3,3-Trifluoropropylsulfonyl)methyl] imidazo[1,2-a]pyridine]	–	> 1.2	> 12.0
O=[N+]([O-])c1c(CS(=O)(=O)c2ccc(C(F)(F)F)cc2)nc2c(Sc3ccc(Cl)cc3)cc(Cl)cn12 [Compound 3d, 6-Chloro-8-[(4-Chlorophenyl)thio]-3-Nitro-2-[(4-Trifluoromethylphenylsulfonyl)methyl]imidazo[1,2-a]pyridine]	>4.4	> 0.9	> 11.4
O=[N+]([O-])c1c(CS(=O)(=O)c2ccc(OC(F)(F)F)cc2)nc2c(Br)cc(Cl)cn12 [Compound 2f, 8-Bromo-6-Chloro-3-Nitro-2-[(4-Trifluoromethoxyphenylsulfonyl)methyl]imidazo[1,2-a] pyridine]	–	–	> 23.8
O=[N+]([O-])c1c(CS(=O)(=O)c2ccccc2)nc2c(Sc3ccc(Cl)cc3)cc(Cl)cn12 [Hit B, reference compound]	>105.3	> 31.3	> 19.5
O=[N+]([O-])c1c(CS(=O)(=O)CCC(F)(F)F)nc2c([S+]([O-])c3ccc(Cl)cc3)cc(Cl)cn12 (stereo not drawn) [Compound 6a, 6-Chloro-8-[(4-Chlorophenyl)sulfinyl]-3-Nitro-2-[(3,3,3-Trifluoropropylsulfonyl)methyl] imidazo[1,2-a]pyridine]	–	> 1.5	> 30.3
O=[N+]([O-])c1c(CS(=O)(=O)c2ccc(O)cc2)nc2c(Sc3ccc(Cl)cc3)cc(Cl)cn12 [Compound 3a, 4-{[(6-Chloro-8-[(4-Chlorophenyl)thio]-3-Nitroimidazo[1,2-a]pyridin-2-yl)methyl]sulfonyl}phenol]	28.6	8.3	10.4
COc1ccc(S(=O)(=O)Cc2nc3c(Br)cc(Cl)cn3c2[N+](=O)[O-])cc1 [Compound 2g, 8-Bromo-6-Chloro-2-[(4-Methoxyphenylsulfonyl)methyl]-3-Nitroimidazo[1,2-a]pyridine]	–	–	> 45.5
O=[N+]([O-])c1c(CS(=O)(=O)CCC(F)(F)F)nc2c(Sc3ccc(Cl)cc3)cc(Cl)cn12 [Compound 3i, 6-Chloro-8-[(4-Chlorophenyl)thio]-3-Nitro-2-[(3,3,3-Trifluoropropylsulfonyl)methyl]imidazo[1,2-a]pyridine]	–	–	> 41.7
O=[N+]([O-])c1c(CS(=O)(=O)c2ccc(Cl)cc2)nc2c(Sc3ccc(Cl)cc3)cc(Cl)cn12 [Compound 3b, 6-Chloro-2-[(4-Chlorophenylsulfonyl)methyl]-8-[(4-Chlorophenyl)thio]-3-Nitroimidazo[1,2-a]pyridine]	–	–	> 22.3
O=[N+]([O-])c1c(CS(=O)(=O)c2ccc(F)cc2)nc2c(Sc3ccc(Cl)cc3)cc(Cl)cn12 [Compound 3c, 6-Chloro-8-[(4-Chlorophenyl)thio]-2-[(4-Fluorophenylsulfonyl)methyl]-3-Nitroimidazo[1,2-a]pyridine]	>27.4	–	> 62.5
O=[N+]([O-])c1c(CS(=O)(=O)C2CC2)nc2c(Sc3ccc(Cl)cc3)cc(Cl)cn12 [Compound 3h, 6-Chloro-8-[(4-Chlorophenyl)thio]-2-[(cyclopropylsulfonyl)methyl]-3-Nitroimidazo[1,2-a]pyridine]	–	–	> 16.9
CSc1ccc(OCc2ncc([N+](=O)[O-])n2C)cc1 [Fexinidazole, reference compound]	>142.9	>6.3/>6.3	>6.3/>6.3
O=[N+]([O-])c1c(CS(=O)(=O)c2ccc(OC(F)(F)F)cc2)nc2c(Sc3ccc(Cl)cc3)cc(Cl)cn12 [Compound 3e, 6-Chloro-8-[(4-Chlorophenyl)thio]-3-Nitro-2-[(4-Trifluoromethoxyphenylsulfonyl)methyl]imidazo[1,2-a]pyridine]	–	–	> 62.5
COc1ccc(S(=O)(=O)Cc2nc3c(Sc4ccc(Cl)cc4)cc(Cl)cn3c2[N+](=O)[O-])cc1 [Compound 3f, 6-Chloro-8-[(4-Chlorophenyl)thio]-2-[(4-Methoxyphenylsulfonyl)methyl]-3-Nitroimidazo[1,2-a]pyridine]	–	–	> 55.6
Cn1c([N+](=O)[O-])cnc1COc1ccc(S(C)(=O)=O)cc1 [Fexinidazole sulfone, reference compound]	–	–	-/>5.6
O=[N+]([O-])c1c(CS(=O)(=O)c2ccccc2)nc2c(Br)cc(Cl)cn12 [Hit A, 8-Bromo-6-chloro-3-nitro-2-(phenylsulfonylmethyl)imidazo[1,2-a]pyridine, reference compound]	>11.1	> 7.4	> 47.6
